Here are results for one molecule from publication PMC4429956.

The chains behind the UniProt entries cited, without tags or fusion partners.
UniProt P10085: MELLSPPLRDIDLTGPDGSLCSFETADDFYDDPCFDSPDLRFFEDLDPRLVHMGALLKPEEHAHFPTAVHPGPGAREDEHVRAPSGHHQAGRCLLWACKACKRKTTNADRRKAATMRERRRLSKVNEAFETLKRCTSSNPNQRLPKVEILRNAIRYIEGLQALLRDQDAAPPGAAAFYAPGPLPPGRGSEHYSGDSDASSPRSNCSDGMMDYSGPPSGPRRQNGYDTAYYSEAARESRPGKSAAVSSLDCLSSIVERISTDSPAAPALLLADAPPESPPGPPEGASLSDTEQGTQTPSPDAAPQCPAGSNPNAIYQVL

Results are given in words; binding and its absence hold for the method and conditions named. In cells and extracts the contact can be indirect. Some binding calls cover weakened binding; strength is not graded here.

In this test the target is MyoD (UniProt P10085). The test is described as follows: co-IP; full-length TAF3 and KK-TAF3 with MyoD (Figure S7C).

B1: full-length WT-TAF3 (protein, UniProt Q5HZG4 1-932)
chain: MCESYSRSLLRVSVAQICQALGWDSVQLSACHLLTDVLQRYLQQLGRGCHRYSELYGRTDPILDDVGEAFQLMGVNLHELEDYIHNIEPVTFPHQIPSFPVSKNNVLQFPQPGSKDAEERKDYIPDYLPPIVSSQEEEEEEQVPTDGGTSAEAMQVPLEEDDEMEEEEVINDENFLGKRPLDSPEVEEMPSMKRPRLLSTKGDSLDVVLLEAREPLSSINPQKTPPVLSPVRVQDRADLAPPSPQPPMLAPFAKSQLPIAKPLETKSFTPKTKTKASSPGQKTKSPKAALSPARLGSPIRSPKTIPKEKKSPGRSKSPKSPKSPKIVAHVPQTPVRPETPNRTPSAMVVEKTVKETIPVMKPTQTPPEVVKLNIEMQPKKPVVTDKTIDDSIDAVIARACAEREPDPFEFSSGSESEGDTFTSPKRISGSECATPKASTSSNNFTKSLATPLPLSSGTSSSDNSWTMDASIDEVVRKAKLGAPSNMPPTFPYISSPSISPPTPEPLHKGYEEKAKLPSSVDVKKKLKKELKTKLKKKEKQRDRERERERNKERSKEKDKMREREKEKEAGKELKYPWRELMKDEDSDPYKFKIKEFEDIDAAKVRLKDGIVRREREKHKDKKKDRERSKREKDKRERERLKEKNREDKIKAPPTQLVLPPKEMALPLFSPSAVRVPAMLPAFSPMLPEKLFEEKEKPKEKERKKDKKEKKKKKEKEKEKEKKEREREKERREREKREKEKEKHKHEKIKVEPVIPAPSPVIPRLTLRVGAGQDKIVISKVVPAPEAKPAPSLNRPKTPPPAPVPIPVRVSPTPLQPPLLTQAAVCPALMPSPAPALSGIGSAKAPVRSVVTETVSTYVIRDEWGNQIWICPGCNKPDDGSPMIGCDDCDDWYHWPCVGIMAAPPEEMQWFCPKCANKIKKDKKHKKRKHRAH
Turning to B1, the binding result was “binds”.
